Paper PMC10516997

Sequences of proteins named here, by UniProt entry; tags and fusion partners are left off.
UniProt Q13547: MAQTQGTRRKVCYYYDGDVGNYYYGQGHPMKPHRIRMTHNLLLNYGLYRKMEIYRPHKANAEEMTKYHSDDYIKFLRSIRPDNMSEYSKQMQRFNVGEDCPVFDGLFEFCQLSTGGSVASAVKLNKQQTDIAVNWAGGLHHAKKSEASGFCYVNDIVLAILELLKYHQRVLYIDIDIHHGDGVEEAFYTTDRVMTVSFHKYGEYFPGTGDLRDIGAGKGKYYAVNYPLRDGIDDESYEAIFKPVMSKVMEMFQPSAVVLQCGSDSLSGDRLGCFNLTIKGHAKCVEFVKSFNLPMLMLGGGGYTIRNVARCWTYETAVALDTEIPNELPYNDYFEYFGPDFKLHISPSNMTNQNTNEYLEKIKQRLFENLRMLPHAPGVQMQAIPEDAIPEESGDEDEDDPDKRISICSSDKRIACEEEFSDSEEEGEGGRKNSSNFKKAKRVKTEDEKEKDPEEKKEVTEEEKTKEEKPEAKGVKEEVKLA
UniProt Q92769: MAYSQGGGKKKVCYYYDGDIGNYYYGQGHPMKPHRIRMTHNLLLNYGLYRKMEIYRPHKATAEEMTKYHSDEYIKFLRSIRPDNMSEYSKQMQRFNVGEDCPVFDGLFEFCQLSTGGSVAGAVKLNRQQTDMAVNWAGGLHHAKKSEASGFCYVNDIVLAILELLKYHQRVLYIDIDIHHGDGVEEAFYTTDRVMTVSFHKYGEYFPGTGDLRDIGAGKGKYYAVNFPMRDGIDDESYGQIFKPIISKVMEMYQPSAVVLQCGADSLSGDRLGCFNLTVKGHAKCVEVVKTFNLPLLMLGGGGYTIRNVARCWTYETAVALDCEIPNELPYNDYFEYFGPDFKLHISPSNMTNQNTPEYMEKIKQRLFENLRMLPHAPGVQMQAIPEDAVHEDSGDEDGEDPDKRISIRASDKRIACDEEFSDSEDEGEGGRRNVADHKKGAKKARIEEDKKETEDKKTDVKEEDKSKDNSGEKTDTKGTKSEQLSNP

Target: T1, Flag-tagged E2F7 (UniProt Q96AV8)
T1 sequence: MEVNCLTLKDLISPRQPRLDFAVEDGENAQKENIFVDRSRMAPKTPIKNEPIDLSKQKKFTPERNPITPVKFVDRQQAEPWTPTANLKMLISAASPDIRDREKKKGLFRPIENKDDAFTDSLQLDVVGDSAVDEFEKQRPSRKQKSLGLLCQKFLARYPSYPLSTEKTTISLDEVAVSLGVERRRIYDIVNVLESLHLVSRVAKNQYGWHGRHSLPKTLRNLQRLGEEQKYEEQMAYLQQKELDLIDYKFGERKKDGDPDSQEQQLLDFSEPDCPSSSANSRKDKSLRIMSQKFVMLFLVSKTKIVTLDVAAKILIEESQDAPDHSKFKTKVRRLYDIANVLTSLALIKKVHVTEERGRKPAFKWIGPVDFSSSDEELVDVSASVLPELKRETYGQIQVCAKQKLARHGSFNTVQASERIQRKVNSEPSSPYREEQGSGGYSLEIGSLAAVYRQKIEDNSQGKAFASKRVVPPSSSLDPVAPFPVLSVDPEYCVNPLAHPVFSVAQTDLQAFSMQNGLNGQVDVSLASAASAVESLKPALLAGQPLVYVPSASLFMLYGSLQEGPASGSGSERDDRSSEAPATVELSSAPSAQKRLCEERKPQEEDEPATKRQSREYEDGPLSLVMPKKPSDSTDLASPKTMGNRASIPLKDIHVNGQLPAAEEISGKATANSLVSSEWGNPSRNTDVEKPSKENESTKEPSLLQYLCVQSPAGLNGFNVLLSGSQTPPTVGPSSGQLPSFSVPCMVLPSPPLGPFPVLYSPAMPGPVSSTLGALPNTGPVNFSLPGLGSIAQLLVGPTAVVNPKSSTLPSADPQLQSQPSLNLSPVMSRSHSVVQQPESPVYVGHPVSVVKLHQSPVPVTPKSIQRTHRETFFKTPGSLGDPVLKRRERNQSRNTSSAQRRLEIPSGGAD
Experiment: affinity purification with mass spectrometry; H526 cells stably expressing Flag-tagged E2F7 or RCOR1 lysed in 1% NP40 buffer; supernatant incubated with M2 Flag resin overnight, washed with lysis buffer, eluted with 3XFlag peptide; background of Flag vector control subtracted

Row | binding | Substance
1 | binds | HDAC1 (from UniProt Q13547 1-482)
2 | binds | HDAC2 (from UniProt Q92769 1-488)
3 | binds | RCOR (human (endogenous in H526))

No constants are given. Whether binding was seen depends on the method and setting. In cells and extracts the contact can be indirect. Here binding means that the protein was enriched with, or labelled near, the bait; the list need not be complete. Tags and fused reporters may be left off the sequences shown.
